# At least one read-out could not be matched to a standard name with certainty.
# System: HDMEC cells (Human Dermal Microvascular Endothelial Cells)
# Assay: Detachment of endothelial cells in vitro (HDMEC detachment test)
# Format: cell-based
# Conditions: 1 μM compound, two hours treatment, plates precoated with fibronectin, vitronectin or gelatin; calcein fluorescence, relative to untreated control; mean of six samples; >=15% regarded as significant
# Experimental: A test for the determination of the detachment of endothelial cells has been developed in order to select products with respect to their “in vitro” activity. Such test was employed in the present invention. By way of this test, the endothelial cells were inoculated in plates, the bottom of which were covered with at least one binding agent, for example, chosen from gelatin, fibronectin, and vitronectin. The inoculated endothelial cells were then cultured. The cultured endothelial cells were treated with a medium comprising the test compound. The cells were then labeled with a fluorescent substance. The detached cells were removed by washing; and the fluorescence of the remaining cells was counted with a fluorimeter.
# This test measures the detachment of endothelial cells cultured on substrata based on at least one binding agent, for example, chosen from fibronectin, vitronectin, and gelatin. […] The fluorescence of the remaining cells was counted with a fluorimeter. […]
# The evaluation of the detachment of endothelial cells in vitro was determined in the following way: HDMEC cells (Human Dermal Microvascular Endothelial Cells, Promocell, c-122102) were cultured in an ECGM-MV medium which comprised 5% of foetal calf serum, growth factors (EGF 10 ng/ml, hydrocortisone 1 μg/ml, 0.4% growth supplement with heparin) and antibiotics (amphotericin 50 ng/ml, gentamicin 50 μg/ml). […]
smiles,measurement,value
COc1cc(C(=O)/C(C)=C/c2ccc(N(C)C)cc2)cc(OC)c1OC [Example 12],Percentage of detachment of HDMEC cells induced by 1 μM of compound,29-42%
